Assay results reported in publication PMC11519604, “TOX2 nuclear-cytosol translocation is linked to leukemogenesis of acute T-cell leukemia by repressing TIM3 transcription” (Cell Death and Differentiation, 2024).
No constants are given. Whether binding was seen depends on the method and setting. For part of these data: In cells and extracts the contact can be indirect. Some results given as binding are weak or reduced against the parent protein; the word gives no strength. For part of these data: Where a sequence is shown, tags or fusion partners need not be part of it.

Protein sequences, listed by entry. Tags and fused reporters are not part of them.
UniProt O15379: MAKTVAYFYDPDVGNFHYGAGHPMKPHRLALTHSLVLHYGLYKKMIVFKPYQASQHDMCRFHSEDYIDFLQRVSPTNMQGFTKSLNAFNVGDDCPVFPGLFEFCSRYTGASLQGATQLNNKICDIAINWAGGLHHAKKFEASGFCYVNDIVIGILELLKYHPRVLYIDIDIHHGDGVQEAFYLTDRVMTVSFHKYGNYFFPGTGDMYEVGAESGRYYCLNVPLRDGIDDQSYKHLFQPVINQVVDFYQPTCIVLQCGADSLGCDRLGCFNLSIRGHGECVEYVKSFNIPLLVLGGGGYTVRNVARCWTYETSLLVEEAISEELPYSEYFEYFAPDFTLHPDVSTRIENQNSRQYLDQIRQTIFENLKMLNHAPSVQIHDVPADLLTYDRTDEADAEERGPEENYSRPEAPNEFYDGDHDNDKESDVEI

Columns and labels:
[1] = target: T1, TOX (thymocyte selection-associated high mobility group box protein), endogenous (human (endogenous in Jurkat, T2 and normal T cells)) (UniProt O94900); experiment: co-IP; nuclear protein of Jurkat cells, immunoprecipitation with anti-TOX antibody, immunoblot
T1 sequence: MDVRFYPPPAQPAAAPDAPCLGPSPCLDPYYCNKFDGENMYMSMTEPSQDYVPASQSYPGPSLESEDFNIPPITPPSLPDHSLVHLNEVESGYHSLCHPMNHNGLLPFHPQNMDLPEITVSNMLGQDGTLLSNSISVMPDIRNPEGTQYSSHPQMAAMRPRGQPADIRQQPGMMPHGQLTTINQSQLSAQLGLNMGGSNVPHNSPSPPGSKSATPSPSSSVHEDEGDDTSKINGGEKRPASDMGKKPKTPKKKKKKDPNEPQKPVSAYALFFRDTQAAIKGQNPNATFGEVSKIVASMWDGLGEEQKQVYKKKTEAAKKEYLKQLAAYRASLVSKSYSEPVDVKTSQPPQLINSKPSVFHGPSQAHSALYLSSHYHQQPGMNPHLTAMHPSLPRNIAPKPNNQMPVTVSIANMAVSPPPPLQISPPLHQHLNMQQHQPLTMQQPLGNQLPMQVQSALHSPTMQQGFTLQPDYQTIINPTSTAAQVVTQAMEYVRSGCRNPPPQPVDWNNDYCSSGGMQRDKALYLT

[2] = target: T1, TOX (thymocyte selection-associated high mobility group box protein), endogenous (human (endogenous in Jurkat, T2 and normal T cells)); experiment: native gel or EMSA; nuclear protein, Native-page 5% G-250 Sample Additive, SDS-free Tris-Gly gels at 4 °C, immunoblot for TOX and TOX2
[3] = target: T2, TOX-Flag (full-length TOX) (UniProt O94900); experiment: co-IP; exogenous co-IP in HEK293T cells co-transfected with full-length TOX, TOX-Flag or TOX2-HA and truncated TOX or TOX2 plasmids; Co-IP kit lysis buffer, antibody overnight at 4 °C, protein A/G beads
T2 sequence: T1 sequence

HDAC3, endogenous (from UniProt O15379 1-428) (enzyme)
binding [1]: binds

B1: TOX2, endogenous (protein, UniProt Q96NM4 1-488)
chain: MQQTRTEAVAGAFSRCLGFCGMRLGLLLLARHWCIAGVFPQKFDGDSAYVGMSDGNPELLSTSQTYNGQSENNEDYEIPPITPPNLPEPSLLHLGDHEASYHSLCHGLTPNGLLPAYSYQAMDLPAIMVSNMLAQDSHLLSGQLPTIQEMVHSEVAAYDSGRPGPLLGRPAMLASHMSALSQSQLISQMGIRSSIAHSSPSPPGSKSATPSPSSSTQEEESEVHFKISGEKRPSADPGKKAKNPKKKKKKDPNEPQKPVSAYALFFRDTQAAIKGQNPSATFGDVSKIVASMWDSLGEEQKQSSPDQGETKSTQANPPAKMLPPKQPMYAMPGLASFLTPSDLQAFRSGASPASLARTLGSKSLLPGLSASPPPPPSFPLSPTLHQQLSLPPHAQGALLSPPVSMSPAPQPPVLPTPMALQVQLAMSPSPPGPQDFPHISEFPSSSGSCSPGPSNPTSSGDWDSSYPSGECGISTCSLLPRDKSLYLT
binding [2]: binds | binding [1]: binds

B2: TOX(N)-His (1–360) (domain or fragment, UniProt O94900 1-360)
chain: MDVRFYPPPAQPAAAPDAPCLGPSPCLDPYYCNKFDGENMYMSMTEPSQDYVPASQSYPGPSLESEDFNIPPITPPSLPDHSLVHLNEVESGYHSLCHPMNHNGLLPFHPQNMDLPEITVSNMLGQDGTLLSNSISVMPDIRNPEGTQYSSHPQMAAMRPRGQPADIRQQPGMMPHGQLTTINQSQLSAQLGLNMGGSNVPHNSPSPPGSKSATPSPSSSVHEDEGDDTSKINGGEKRPASDMGKKPKTPKKKKKKDPNEPQKPVSAYALFFRDTQAAIKGQNPNATFGEVSKIVASMWDGLGEEQKQVYKKKTEAAKKEYLKQLAAYRASLVSKSYSEPVDVKTSQPPQLINSKPSVFH
binding [3]: binds

B3: TOX(C)-His (257–526) (domain or fragment, UniProt O94900 257-526)
chain: DPNEPQKPVSAYALFFRDTQAAIKGQNPNATFGEVSKIVASMWDGLGEEQKQVYKKKTEAAKKEYLKQLAAYRASLVSKSYSEPVDVKTSQPPQLINSKPSVFHGPSQAHSALYLSSHYHQQPGMNPHLTAMHPSLPRNIAPKPNNQMPVTVSIANMAVSPPPPLQISPPLHQHLNMQQHQPLTMQQPLGNQLPMQVQSALHSPTMQQGFTLQPDYQTIINPTSTAAQVVTQAMEYVRSGCRNPPPQPVDWNNDYCSSGGMQRDKALYLT
binding [3]: binds

B4: TOX(C2)-Myc (361–526) (domain or fragment, UniProt O94900 361-526)
chain: GPSQAHSALYLSSHYHQQPGMNPHLTAMHPSLPRNIAPKPNNQMPVTVSIANMAVSPPPPLQISPPLHQHLNMQQHQPLTMQQPLGNQLPMQVQSALHSPTMQQGFTLQPDYQTIINPTSTAAQVVTQAMEYVRSGCRNPPPQPVDWNNDYCSSGGMQRDKALYLT
binding [3]: no binding
